Values from PubChem BioAssay AID1224829 (NIAID, 2016).

Assay: 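Genes needed for LPS-driven NF-kappaB p65 nuclear entry in mouse macrophages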 (follow-up of hits)
System: mouse RAW264.7 G9 macrophage reporter cells
Knock-down reagent: single siRNA against mouse genes, 100 nM
Duration: 2 days of siRNA knock-down, then 40 min of LPS before fixing
Challenge: LPS (Salmonella minnesota R595) at 10 ng/ml
Measurement: 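High-content images after 40 min LPS exposure; GFP-p65 nucleus to surrounding ring signal ratio, normalised to plate median and non-targeting control wells, expressed as z-score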
Direction: p65 translocation z-score: higher = more nuclear NF-kappaB p65 after LPS
Rule for the call: 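An siRNA is called active when the mean z-score of its two replicates is above 2 or below -2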
Calls: active = changed p65 translocation (either direction); inactive = no clear change
Shown is one part, drawn at random, of about 3,800 deposited reagents. 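Calls cover raised and lowered translocation; gene median uses one vendor's three siRNAs; qiagen siRNAs acted more weakly than ambion siRNAs.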 Unmarked entries are inactive. Reagents against one gene are numbered here. Further read-outs or replicates are left out here.

{"Target gene": "Fbxw11 (F-box and WD-40 domain protein 11)", "siRNA no.": 1, "siRNA vendor or control pool": "ambion single siRNA", "p65 translocation z-score, replicate mean": 1.38, "p65 translocation z-score, replicate 1": 1.92}
{"Target gene": "Fbxw11 (F-box and WD-40 domain protein 11)", "siRNA no.": 2, "siRNA vendor or control pool": "ambion single siRNA", "p65 translocation z-score, replicate mean": "-2.7 (active)", "p65 translocation z-score, replicate 1": -3.4}
{"Target gene": "Fbxw11 (F-box and WD-40 domain protein 11)", "siRNA no.": 3, "siRNA vendor or control pool": "ambion single siRNA", "p65 translocation z-score, replicate mean": "-2.28 (active)", "p65 translocation z-score, replicate 1": -2.86}
{"Target gene": "Fbxw11 (F-box and WD-40 domain protein 11)", "siRNA no.": 4, "siRNA vendor or control pool": "qiagen single siRNA", "p65 translocation z-score, replicate mean": -0.75, "p65 translocation z-score, replicate 1": -0.868}
{"Target gene": "Fbxw11 (F-box and WD-40 domain protein 11)", "siRNA no.": 5, "siRNA vendor or control pool": "qiagen single siRNA", "p65 translocation z-score, replicate mean": -1.16, "p65 translocation z-score, replicate 1": -1.13}
{"Target gene": "Fbxw11 (F-box and WD-40 domain protein 11)", "siRNA no.": 6, "siRNA vendor or control pool": "qiagen single siRNA", "p65 translocation z-score, replicate mean": "-6.78 (active)", "p65 translocation z-score, replicate 1": -5.9}
{"Target gene": "Trip12 (thyroid hormone receptor interactor 12)", "siRNA no.": 1, "siRNA vendor or control pool": "ambion single siRNA", "p65 translocation z-score, replicate mean": -1.24, "p65 translocation z-score, replicate 1": -0.496}
{"Target gene": "Trip12 (thyroid hormone receptor interactor 12)", "siRNA no.": 2, "siRNA vendor or control pool": "ambion single siRNA", "p65 translocation z-score, replicate mean": "-3.59 (active)", "p65 translocation z-score, replicate 1": -2.61}
{"Target gene": "Trip12 (thyroid hormone receptor interactor 12)", "siRNA no.": 3, "siRNA vendor or control pool": "ambion single siRNA", "p65 translocation z-score, replicate mean": -1.89, "p65 translocation z-score, replicate 1": -1.71}
{"Target gene": "Trip12 (thyroid hormone receptor interactor 12)", "siRNA no.": 4, "siRNA vendor or control pool": "qiagen single siRNA", "p65 translocation z-score, replicate mean": -0.537, "p65 translocation z-score, replicate 1": 0.559}
{"Target gene": "Trip12 (thyroid hormone receptor interactor 12)", "siRNA no.": 5, "siRNA vendor or control pool": "qiagen single siRNA", "p65 translocation z-score, replicate mean": "4 (active)", "p65 translocation z-score, replicate 1": 4.61}
{"Target gene": "Trip12 (thyroid hormone receptor interactor 12)", "siRNA no.": 6, "siRNA vendor or control pool": "qiagen single siRNA", "p65 translocation z-score, replicate mean": "2.03 (active)", "p65 translocation z-score, replicate 1": 1.64}
{"Target gene": "Tmem171 (transmembrane protein 171)", "siRNA no.": 1, "siRNA vendor or control pool": "ambion single siRNA", "p65 translocation z-score, replicate mean": "-10.7 (active)", "p65 translocation z-score, replicate 1": -12}
{"Target gene": "Tmem171 (transmembrane protein 171)", "siRNA no.": 2, "siRNA vendor or control pool": "ambion single siRNA", "p65 translocation z-score, replicate mean": "-6.09 (active)", "p65 translocation z-score, replicate 1": -6.09}
{"Target gene": "Tmem171 (transmembrane protein 171)", "siRNA no.": 3, "siRNA vendor or control pool": "ambion single siRNA", "p65 translocation z-score, replicate mean": "-2.19 (active)", "p65 translocation z-score, replicate 1": -1.98}
{"Target gene": "Tmem171 (transmembrane protein 171)", "siRNA no.": 4, "siRNA vendor or control pool": "qiagen single siRNA", "p65 translocation z-score, replicate mean": "-2.03 (active)", "p65 translocation z-score, replicate 1": -0.723}
{"Target gene": "Tmem171 (transmembrane protein 171)", "siRNA no.": 5, "siRNA vendor or control pool": "qiagen single siRNA", "p65 translocation z-score, replicate mean": -0.468, "p65 translocation z-score, replicate 1": -2.7}
{"Target gene": "Tmem171 (transmembrane protein 171)", "siRNA no.": 6, "siRNA vendor or control pool": "qiagen single siRNA", "p65 translocation z-score, replicate mean": -0.0545, "p65 translocation z-score, replicate 1": -1.28}
{"Target gene": "Trmt9b (tRNA methyltransferase 9B)", "siRNA no.": 1, "siRNA vendor or control pool": "ambion single siRNA", "p65 translocation z-score, replicate mean": 0.164, "p65 translocation z-score, replicate 1": 0.781}
{"Target gene": "Trmt9b (tRNA methyltransferase 9B)", "siRNA no.": 2, "siRNA vendor or control pool": "ambion single siRNA", "p65 translocation z-score, replicate mean": 0.0214, "p65 translocation z-score, replicate 1": -0.092}
{"Target gene": "Trmt9b (tRNA methyltransferase 9B)", "siRNA no.": 3, "siRNA vendor or control pool": "ambion single siRNA", "p65 translocation z-score, replicate mean": -0.848, "p65 translocation z-score, replicate 1": -1.69}
{"Target gene": "Trmt9b (tRNA methyltransferase 9B)", "siRNA no.": 4, "siRNA vendor or control pool": "qiagen single siRNA", "p65 translocation z-score, replicate mean": -1.32, "p65 translocation z-score, replicate 1": -2.43}
{"Target gene": "Trmt9b (tRNA methyltransferase 9B)", "siRNA no.": 5, "siRNA vendor or control pool": "qiagen single siRNA", "p65 translocation z-score, replicate mean": "-2.79 (active)", "p65 translocation z-score, replicate 1": -2.79}
{"Target gene": "Trmt9b (tRNA methyltransferase 9B)", "siRNA no.": 6, "siRNA vendor or control pool": "qiagen single siRNA", "p65 translocation z-score, replicate mean": -1, "p65 translocation z-score, replicate 1": -0.405}
{"Target gene": "Mrpl35 (mitochondrial ribosomal protein L35)", "siRNA no.": 1, "siRNA vendor or control pool": "ambion single siRNA", "p65 translocation z-score, replicate mean": -1.48, "p65 translocation z-score, replicate 1": -1.17}
{"Target gene": "Mrpl35 (mitochondrial ribosomal protein L35)", "siRNA no.": 2, "siRNA vendor or control pool": "ambion single siRNA", "p65 translocation z-score, replicate mean": "2.78 (active)", "p65 translocation z-score, replicate 1": 2.78}
{"Target gene": "Mrpl35 (mitochondrial ribosomal protein L35)", "siRNA no.": 3, "siRNA vendor or control pool": "ambion single siRNA", "p65 translocation z-score, replicate mean": -1.61, "p65 translocation z-score, replicate 1": -3.4}
{"Target gene": "Mrpl35 (mitochondrial ribosomal protein L35)", "siRNA no.": 4, "siRNA vendor or control pool": "qiagen single siRNA", "p65 translocation z-score, replicate mean": 1.93, "p65 translocation z-score, replicate 1": 0.319}
{"Target gene": "Mrpl35 (mitochondrial ribosomal protein L35)", "siRNA no.": 5, "siRNA vendor or control pool": "qiagen single siRNA", "p65 translocation z-score, replicate mean": 1.97, "p65 translocation z-score, replicate 1": 0.971}
{"Target gene": "Mrpl35 (mitochondrial ribosomal protein L35)", "siRNA no.": 6, "siRNA vendor or control pool": "qiagen single siRNA", "p65 translocation z-score, replicate mean": -1.27, "p65 translocation z-score, replicate 1": 0.0352}

2 entries from above, set out differently.
Target gene | siRNA no. | siRNA vendor or control pool | p65 translocation z-score, replicate mean | p65 translocation z-score, replicate 1
Tmem171 (transmembrane protein 171) | 1 | ambion single siRNA | -10.7 (active) | -12
Tmem171 (transmembrane protein 171) | 2 | ambion single siRNA | -6.09 (active) | -6.09
